Measured data: PubChem BioAssay AID743121 (NCATS, 2013)

Assay: 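Knock-downs that sensitise breast cancer cells to camptothecin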 (primary screen)
Cell system: MDA-MB-231 cells, a human breast cancer line
Reagent: single siRNA against human genes, 20 nM siRNA (0.8 pmol per well)
Duration: 120 h (drug added 48 h after transfection, read 72 h later)
Treatment: camptothecin 20 nM (about EC30) for 72 h; vehicle 0.1% DMSO in parallel plates
Measurement: 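CellTiter-Glo ATP signal, scaled to control siRNA as percent viability; sensitisation given as log2 of untreated divided by camptothecin-treated viability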
Reading the numbers: log2 vehicle/camptothecin viability: higher = stronger sensitisation to camptothecin; viability with camptothecin and viability without drug: higher = more viable cells
Hit rule: 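Active genes have an RSA gene-level p-value below 0.001, computed from the ratios of their separate siRNAs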
Here is one part, drawn at random, of about 26,000 reagents tested. In the full data, 167 (0.63%) are marked active. 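Calls are per gene from RSA p-values that are not deposited; an individual active-marked siRNA can sensitise only weakly.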 Unmarked entries are inactive. Reagents against one gene are numbered here. Reagent sequences are not shown.

no.	target gene	reagent no.	log2 vehicle/camptothecin viability	viability with camptothecin (% of control)	viability without drug (% of control)
1	KDM4C	1	-0.0469	107	103
2	KDM4C	2	0.268	22.9	27.6
3	KDM4C	3	0.707	27.5	44.9
4	APEX1	1	-0.175	67.8	60.1
5	APEX1	2	-0.179	83.5	73.8
6	APEX1	3	-0.173	41.3	36.6
7	APEX1	4	-0.137	109	98.8
8	ACVRL1	1	-0.146	96.4	87.1
9	ACVRL1	2	-0.539	98.8	68
10	ACVRL1	3	-0.0469	97.7	94.6
11	ACVRL1	4	-0.283	63.4	52.2
12	PAQR8	1	0.115	74.9	81.1
13	PAQR8	2	-0.249	48.7	41
14	PAQR8	3	-0.106	74.3	69.1
15	PAQR8	4	-0.369	73.8	57.1
16	FBXL12	1	-0.208	86.9	75.2
17	FBXL12	2	-0.229	86.6	73.9
18	FBXL12	3	0.367	29.4	37.9
19	FBXL12	4	-0.139	99.4	90.3
20	PDE8B	1	-0.366	109	84.8
21	PDE8B	2	-0.403	76.8	58.1
22	PDE8B	3	-0.172	107	95.2
23	PDE8B	4	-0.466	64.4	46.7
24	OR3A1	1	-0.309	62.3	50.3
25	OR3A1	2	-0.0446	67.4	65.3
26	OR3A1	3	-0.174	108	95.7
27	OR3A1	4	0.545	29.1	42.5
28	OR2M4	1	-0.669	74.2	46.7
29	OR2M4	2	0.484	20.6	28.8
30	OR2M4	3	-0.113	88.8	82.1
31	OR2M4	4	-0.241	55.3	46.8
